Measurements from article PMC4863740.
No constants are given. Whether binding was seen depends on the method and setting. In cells and extracts the contact can be indirect. Some binding calls cover weakened binding; strength is not graded here. For part of these data: Sequences can lack the tags named with a protein.

T1: 2xFlag-Nanog (UniProt Q80Z64)
T1 sequence: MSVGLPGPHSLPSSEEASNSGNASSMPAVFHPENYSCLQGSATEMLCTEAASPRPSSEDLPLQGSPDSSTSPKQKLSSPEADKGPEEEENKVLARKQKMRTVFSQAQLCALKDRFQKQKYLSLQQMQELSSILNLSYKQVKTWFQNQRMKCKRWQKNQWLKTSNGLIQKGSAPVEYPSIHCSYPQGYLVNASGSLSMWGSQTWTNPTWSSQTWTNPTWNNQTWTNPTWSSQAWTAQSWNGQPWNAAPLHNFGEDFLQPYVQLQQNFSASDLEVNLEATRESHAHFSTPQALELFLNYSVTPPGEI

T2: NANOG (endogenous) (mouse (endogenous in ESCs)) (UniProt Q80Z64)
T2 sequence: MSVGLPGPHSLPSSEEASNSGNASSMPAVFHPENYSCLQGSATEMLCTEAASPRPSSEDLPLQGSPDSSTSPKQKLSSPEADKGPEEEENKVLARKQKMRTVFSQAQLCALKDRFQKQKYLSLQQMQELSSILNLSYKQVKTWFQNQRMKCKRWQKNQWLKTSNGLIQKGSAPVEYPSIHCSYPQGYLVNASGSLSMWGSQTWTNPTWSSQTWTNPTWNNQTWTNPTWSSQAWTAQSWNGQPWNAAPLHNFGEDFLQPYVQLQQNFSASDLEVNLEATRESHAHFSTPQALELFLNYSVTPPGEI

T3: recombinant NANOG (UniProt Q80Z64)
T3 sequence: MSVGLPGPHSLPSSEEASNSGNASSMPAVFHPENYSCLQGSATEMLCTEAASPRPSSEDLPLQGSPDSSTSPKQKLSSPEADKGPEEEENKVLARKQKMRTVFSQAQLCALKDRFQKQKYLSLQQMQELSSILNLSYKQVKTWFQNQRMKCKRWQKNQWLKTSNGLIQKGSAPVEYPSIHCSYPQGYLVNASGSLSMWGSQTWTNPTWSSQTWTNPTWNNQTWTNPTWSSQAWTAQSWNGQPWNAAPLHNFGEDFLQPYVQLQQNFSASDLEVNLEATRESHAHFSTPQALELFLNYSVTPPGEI


Legend:
2xFlag-Nanog = biological target: T1, 2xFlag-Nanog; assay: co-IP; endogenous coimmunoprecipitation in 2xFlag-Nanog-EpiSCs; data not shown
[1] = biological target: T2, NANOG (endogenous) (mouse (endogenous in ESCs)); assay: co-IP; endogenous proteins from wild-type ESC nuclear extracts, Western blot; Benzonase and ethidium bromide added where indicated
recombinant NANOG = biological target: T3, recombinant NANOG; assay: co-IP; recombinant NANOG and recombinant SALL1, analyzed by Western blot

| Binder | binding (2xFlag-Nanog) | binding [1] | binding (recombinant NANOG) |
| --- | --- | --- | --- |
| SALL1 (protein, UniProt Q9ER74 1-1322) MSRRKQAKPQHFQSDPEVASLPRRDGDTEKGQPSRPTKSKDAHVCGRCCAEFFELSDLLLHKKSCTKNQLVLIVNESPASPAKTFPPGPSLNDPDDQMKDAANKADQEDCSDLSEPKGLDREESMEVEVPVATTTTTTTGGSGGSGGSTLSGVTNITTPSCHSGCSSGTSAITTSLPQLGDLTTLGNFSVINSNVIIENLQSTKVAVAQFSQEARCGGASGGKLLISTLMEQLLALQQQQIHQLQLIEQIRHQILLLASQSADLPAAPSIPSQGTLRTSANPLTTLSSHLSQQLAVAAGLAQSLASQSANISGVKQLPHVQLPQSSSGTSIVPPSGGTSPNMSIVTAAVPTPSSEKVASNAGASHVSSPAVSASSSPAFAISSLLSPESNPLLPQPTPANAVFPTPLPNIATTAEDLNSLSALAQQRKSKPPNVTAFEAKSTSDEAFFKHKCRFCAKVFGSDSALQIHLRSHTGERPFKCNICGNRFSTKGNLKVHFQRHKEKYPHIQMNPYPVPEHLDNVPTSTGIPYGMSIPSEKPVTSWLDTKPVLPTLTTSVGLPLPPTLPSLTPFIKTEEPAPIPISHSAASPQGSVKSDSGAPDLATRNPSGVPEEVEGSAVPPFGGKGEESNMASSAVPTAGNSTLNSPVADGGPGGTTFTNPLLPLMSEQFKAKFPFGGLLDSAQASETSKLQQLVENIDKKATDPNECIICHRVLSCQSALKMHYRTHTGERPFKCKICGRAFTTKGNLKTHYSVHRAMPPLRVQHSCPICQKKFTNAVVLQQHIRMHMGGQIPNTPVPDNYPESMESDTGSFDEKNFDDLDNFSDENMEECPEGSIPDTPKSADASQDSLSSSPLPLEMSSIAALENQMKMINAGLAEQLQASLKSVENGSMEGDVLTNDSSSVGGDMESQSAGSPAISESTSSMQALSPSNSTQEFHKSPGMEEKPQRVGPGEFANGLSPTPVNGGALDLTSSHAEKIIKEDSLGILFPFRDRGKFKNTACDICGKTFACQSALDIHYRSHTKERPFICTVCNRGFSTKGNLKQHMLTHQMRDLPSQLFEPSSNLGPNQNSAVIPANSLSSLIKTEVNGFVHVSPQDSKDAPTSHVPQGPLSSSATSPVLLPALPRRTPKQHYCNTCGKTFSSSSALQIHERTHTGEKPFACTICGRAFTTKGNLKVHMGTHMWNSTPARRGRRLSVDGPMTFLGGNPVKFPEMFQKDLAARSGSGDPSSFWNQYTAALSNGLAMKANEISVIQNGGIPPIPGSLGSGSSPISGLTGNVEKLGNSEPSAPLAGLEKMASSENGTNFRFTRFVEDSKEIVTS | binds | binds | – |
| recombinant SALL1 (protein, UniProt Q9ER74 1-1322) MSRRKQAKPQHFQSDPEVASLPRRDGDTEKGQPSRPTKSKDAHVCGRCCAEFFELSDLLLHKKSCTKNQLVLIVNESPASPAKTFPPGPSLNDPDDQMKDAANKADQEDCSDLSEPKGLDREESMEVEVPVATTTTTTTGGSGGSGGSTLSGVTNITTPSCHSGCSSGTSAITTSLPQLGDLTTLGNFSVINSNVIIENLQSTKVAVAQFSQEARCGGASGGKLLISTLMEQLLALQQQQIHQLQLIEQIRHQILLLASQSADLPAAPSIPSQGTLRTSANPLTTLSSHLSQQLAVAAGLAQSLASQSANISGVKQLPHVQLPQSSSGTSIVPPSGGTSPNMSIVTAAVPTPSSEKVASNAGASHVSSPAVSASSSPAFAISSLLSPESNPLLPQPTPANAVFPTPLPNIATTAEDLNSLSALAQQRKSKPPNVTAFEAKSTSDEAFFKHKCRFCAKVFGSDSALQIHLRSHTGERPFKCNICGNRFSTKGNLKVHFQRHKEKYPHIQMNPYPVPEHLDNVPTSTGIPYGMSIPSEKPVTSWLDTKPVLPTLTTSVGLPLPPTLPSLTPFIKTEEPAPIPISHSAASPQGSVKSDSGAPDLATRNPSGVPEEVEGSAVPPFGGKGEESNMASSAVPTAGNSTLNSPVADGGPGGTTFTNPLLPLMSEQFKAKFPFGGLLDSAQASETSKLQQLVENIDKKATDPNECIICHRVLSCQSALKMHYRTHTGERPFKCKICGRAFTTKGNLKTHYSVHRAMPPLRVQHSCPICQKKFTNAVVLQQHIRMHMGGQIPNTPVPDNYPESMESDTGSFDEKNFDDLDNFSDENMEECPEGSIPDTPKSADASQDSLSSSPLPLEMSSIAALENQMKMINAGLAEQLQASLKSVENGSMEGDVLTNDSSSVGGDMESQSAGSPAISESTSSMQALSPSNSTQEFHKSPGMEEKPQRVGPGEFANGLSPTPVNGGALDLTSSHAEKIIKEDSLGILFPFRDRGKFKNTACDICGKTFACQSALDIHYRSHTKERPFICTVCNRGFSTKGNLKQHMLTHQMRDLPSQLFEPSSNLGPNQNSAVIPANSLSSLIKTEVNGFVHVSPQDSKDAPTSHVPQGPLSSSATSPVLLPALPRRTPKQHYCNTCGKTFSSSSALQIHERTHTGEKPFACTICGRAFTTKGNLKVHMGTHMWNSTPARRGRRLSVDGPMTFLGGNPVKFPEMFQKDLAARSGSGDPSSFWNQYTAALSNGLAMKANEISVIQNGGIPPIPGSLGSGSSPISGLTGNVEKLGNSEPSAPLAGLEKMASSENGTNFRFTRFVEDSKEIVTS | – | – | binds |
